The list shows a part of the results.
Assays:
Assay in all cases: log2 fold change, soluble protein after heating vs DMSO (PISA); higher = thermal stabilisation; K562 cells, 10 uM, 30 min; active = over 0.2 and 3.5 SD of the protein, either way, in both replicates (recomputed)
[1] = compound: COC1=CC=C(C=C1)CN2C=CC3=C2C=C(C=C3)C(=O)NO
Outline: (§1)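 Quantification of soluble protein used TMTpro 16plex LC-MS/MS, with channel sums equalised. Samples were the supernatant after 21,000xg for 90 min of pooled aliquots from K562 cells (2×10^6 cells/mL) treated with 10 μM compound for 30 min, heated for 3 min over 48°C-58°C, and extracted in PBS with 0.5% NP-40 at 4°C. Values, from duplicates, describe thermal stability against control samples on a log2 fold-change scale.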

Amino acid sequences for entries named in this document (tags omitted). A change or cut given only in a name is not applied to a line headed by its entry.
UniProt P17858: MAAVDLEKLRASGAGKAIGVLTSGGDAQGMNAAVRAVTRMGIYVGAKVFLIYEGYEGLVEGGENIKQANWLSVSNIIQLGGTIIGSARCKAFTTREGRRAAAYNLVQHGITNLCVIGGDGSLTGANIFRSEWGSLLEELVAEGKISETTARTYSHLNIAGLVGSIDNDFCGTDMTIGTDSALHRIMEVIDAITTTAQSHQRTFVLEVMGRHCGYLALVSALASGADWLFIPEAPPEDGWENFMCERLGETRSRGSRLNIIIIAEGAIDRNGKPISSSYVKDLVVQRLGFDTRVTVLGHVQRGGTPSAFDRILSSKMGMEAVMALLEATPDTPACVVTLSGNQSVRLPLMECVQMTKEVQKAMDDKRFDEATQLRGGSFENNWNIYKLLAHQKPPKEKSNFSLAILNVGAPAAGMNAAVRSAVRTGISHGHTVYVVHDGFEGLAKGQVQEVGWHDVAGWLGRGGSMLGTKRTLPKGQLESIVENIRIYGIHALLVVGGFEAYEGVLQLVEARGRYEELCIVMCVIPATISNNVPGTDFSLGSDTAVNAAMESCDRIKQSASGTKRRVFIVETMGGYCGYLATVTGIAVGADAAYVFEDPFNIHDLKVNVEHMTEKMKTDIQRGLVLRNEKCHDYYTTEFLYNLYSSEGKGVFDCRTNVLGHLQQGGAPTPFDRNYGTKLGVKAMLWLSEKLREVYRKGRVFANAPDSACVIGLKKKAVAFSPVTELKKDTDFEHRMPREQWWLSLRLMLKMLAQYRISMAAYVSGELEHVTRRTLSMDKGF
UniProt O95427: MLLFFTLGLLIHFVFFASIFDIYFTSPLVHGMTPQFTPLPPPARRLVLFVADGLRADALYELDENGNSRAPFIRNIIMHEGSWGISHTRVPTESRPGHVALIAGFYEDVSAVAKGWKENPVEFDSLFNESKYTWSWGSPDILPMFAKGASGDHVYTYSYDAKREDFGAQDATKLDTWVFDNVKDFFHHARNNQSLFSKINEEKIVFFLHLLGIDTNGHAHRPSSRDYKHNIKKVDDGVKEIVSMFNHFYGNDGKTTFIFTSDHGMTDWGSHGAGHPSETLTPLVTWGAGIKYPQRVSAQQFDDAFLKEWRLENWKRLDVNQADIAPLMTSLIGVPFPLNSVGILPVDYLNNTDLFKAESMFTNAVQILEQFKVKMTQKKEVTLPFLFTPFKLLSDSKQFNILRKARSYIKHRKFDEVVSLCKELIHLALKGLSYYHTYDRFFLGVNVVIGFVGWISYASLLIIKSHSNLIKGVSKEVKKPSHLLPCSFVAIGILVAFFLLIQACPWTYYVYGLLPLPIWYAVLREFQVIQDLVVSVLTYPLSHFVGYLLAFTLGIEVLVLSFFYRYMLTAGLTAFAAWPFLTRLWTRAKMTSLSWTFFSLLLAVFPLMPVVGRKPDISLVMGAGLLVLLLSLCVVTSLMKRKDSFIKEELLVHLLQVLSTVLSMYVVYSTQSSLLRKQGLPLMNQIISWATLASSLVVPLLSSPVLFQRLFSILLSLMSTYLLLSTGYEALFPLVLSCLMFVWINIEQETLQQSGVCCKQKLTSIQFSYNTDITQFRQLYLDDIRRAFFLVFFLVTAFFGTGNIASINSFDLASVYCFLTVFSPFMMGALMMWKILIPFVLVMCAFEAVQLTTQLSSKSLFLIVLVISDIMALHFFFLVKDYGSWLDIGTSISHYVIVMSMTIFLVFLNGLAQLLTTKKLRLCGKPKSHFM
UniProt P37287: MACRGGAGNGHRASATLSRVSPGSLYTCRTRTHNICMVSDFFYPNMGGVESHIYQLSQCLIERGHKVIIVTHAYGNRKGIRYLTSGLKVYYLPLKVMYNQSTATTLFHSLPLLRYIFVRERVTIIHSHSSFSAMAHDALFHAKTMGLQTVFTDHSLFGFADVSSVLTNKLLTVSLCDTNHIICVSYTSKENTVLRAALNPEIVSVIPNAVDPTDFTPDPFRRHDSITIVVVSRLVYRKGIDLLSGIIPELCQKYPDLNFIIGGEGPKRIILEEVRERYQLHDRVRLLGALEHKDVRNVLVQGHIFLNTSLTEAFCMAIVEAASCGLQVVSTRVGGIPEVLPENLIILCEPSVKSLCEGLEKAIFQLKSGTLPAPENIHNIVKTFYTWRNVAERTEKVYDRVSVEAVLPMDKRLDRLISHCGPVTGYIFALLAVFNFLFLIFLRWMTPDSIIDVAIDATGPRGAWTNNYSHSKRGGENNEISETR
UniProt Q8IWS0: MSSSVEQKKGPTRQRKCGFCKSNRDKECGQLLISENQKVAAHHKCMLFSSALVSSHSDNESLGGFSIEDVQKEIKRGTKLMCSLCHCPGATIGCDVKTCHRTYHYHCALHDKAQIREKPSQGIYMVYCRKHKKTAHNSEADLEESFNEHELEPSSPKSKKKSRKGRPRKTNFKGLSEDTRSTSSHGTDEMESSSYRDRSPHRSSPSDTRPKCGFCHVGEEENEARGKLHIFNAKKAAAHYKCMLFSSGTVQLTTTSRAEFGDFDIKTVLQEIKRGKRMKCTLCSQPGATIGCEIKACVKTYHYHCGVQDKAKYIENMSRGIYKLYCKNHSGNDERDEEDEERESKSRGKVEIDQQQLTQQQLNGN
UniProt Q16877: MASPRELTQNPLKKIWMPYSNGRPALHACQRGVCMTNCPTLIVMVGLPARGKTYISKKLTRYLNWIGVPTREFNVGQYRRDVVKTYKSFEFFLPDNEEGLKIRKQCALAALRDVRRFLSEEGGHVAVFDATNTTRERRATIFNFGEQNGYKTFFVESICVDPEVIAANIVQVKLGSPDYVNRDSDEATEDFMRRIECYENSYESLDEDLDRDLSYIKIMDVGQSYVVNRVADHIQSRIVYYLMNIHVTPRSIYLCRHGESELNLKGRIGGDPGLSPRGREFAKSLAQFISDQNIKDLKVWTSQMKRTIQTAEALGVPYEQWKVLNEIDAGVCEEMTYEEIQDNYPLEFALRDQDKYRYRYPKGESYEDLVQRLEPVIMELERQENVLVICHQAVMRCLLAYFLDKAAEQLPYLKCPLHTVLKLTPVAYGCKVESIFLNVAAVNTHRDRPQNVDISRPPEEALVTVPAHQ
UniProt A6NDG6: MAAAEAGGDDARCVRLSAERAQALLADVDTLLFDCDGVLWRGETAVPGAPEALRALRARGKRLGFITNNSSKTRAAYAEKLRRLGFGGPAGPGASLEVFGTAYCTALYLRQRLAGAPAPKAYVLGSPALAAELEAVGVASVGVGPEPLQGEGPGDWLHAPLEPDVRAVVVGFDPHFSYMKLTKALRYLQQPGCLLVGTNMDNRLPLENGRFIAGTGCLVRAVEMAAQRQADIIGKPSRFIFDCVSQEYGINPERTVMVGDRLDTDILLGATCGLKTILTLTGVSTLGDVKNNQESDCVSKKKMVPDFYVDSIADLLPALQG
UniProt P12273: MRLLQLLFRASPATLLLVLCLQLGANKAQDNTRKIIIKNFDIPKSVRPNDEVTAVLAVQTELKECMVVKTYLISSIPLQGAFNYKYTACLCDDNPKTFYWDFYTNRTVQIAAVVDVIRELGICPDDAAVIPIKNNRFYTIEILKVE
UniProt Q92643: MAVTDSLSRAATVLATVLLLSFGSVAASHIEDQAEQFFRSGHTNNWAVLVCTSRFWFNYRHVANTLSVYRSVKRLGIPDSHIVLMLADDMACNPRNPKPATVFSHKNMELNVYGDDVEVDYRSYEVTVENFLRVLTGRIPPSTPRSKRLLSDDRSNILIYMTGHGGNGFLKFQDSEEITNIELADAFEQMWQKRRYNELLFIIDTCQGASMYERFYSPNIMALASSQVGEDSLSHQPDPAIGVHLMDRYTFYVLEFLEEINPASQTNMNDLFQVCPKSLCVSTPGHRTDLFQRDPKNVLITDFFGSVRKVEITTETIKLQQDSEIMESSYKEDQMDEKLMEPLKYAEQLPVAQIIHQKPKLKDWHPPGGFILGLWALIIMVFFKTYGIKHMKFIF
UniProt O43175: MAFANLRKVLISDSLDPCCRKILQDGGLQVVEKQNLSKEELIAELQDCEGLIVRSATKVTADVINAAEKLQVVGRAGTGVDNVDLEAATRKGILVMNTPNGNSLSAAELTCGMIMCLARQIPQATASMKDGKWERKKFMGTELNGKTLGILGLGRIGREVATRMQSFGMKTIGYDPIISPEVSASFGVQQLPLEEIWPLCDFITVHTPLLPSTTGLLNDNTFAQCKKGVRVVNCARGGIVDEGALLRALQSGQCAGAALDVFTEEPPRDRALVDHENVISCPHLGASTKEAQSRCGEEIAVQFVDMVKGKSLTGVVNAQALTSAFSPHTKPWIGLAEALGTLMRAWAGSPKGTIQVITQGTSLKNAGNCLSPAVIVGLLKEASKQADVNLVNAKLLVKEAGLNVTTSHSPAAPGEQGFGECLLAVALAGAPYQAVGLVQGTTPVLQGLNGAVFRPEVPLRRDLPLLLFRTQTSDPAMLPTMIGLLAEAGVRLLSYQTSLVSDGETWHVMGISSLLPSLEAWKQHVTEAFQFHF
UniProt Q01813: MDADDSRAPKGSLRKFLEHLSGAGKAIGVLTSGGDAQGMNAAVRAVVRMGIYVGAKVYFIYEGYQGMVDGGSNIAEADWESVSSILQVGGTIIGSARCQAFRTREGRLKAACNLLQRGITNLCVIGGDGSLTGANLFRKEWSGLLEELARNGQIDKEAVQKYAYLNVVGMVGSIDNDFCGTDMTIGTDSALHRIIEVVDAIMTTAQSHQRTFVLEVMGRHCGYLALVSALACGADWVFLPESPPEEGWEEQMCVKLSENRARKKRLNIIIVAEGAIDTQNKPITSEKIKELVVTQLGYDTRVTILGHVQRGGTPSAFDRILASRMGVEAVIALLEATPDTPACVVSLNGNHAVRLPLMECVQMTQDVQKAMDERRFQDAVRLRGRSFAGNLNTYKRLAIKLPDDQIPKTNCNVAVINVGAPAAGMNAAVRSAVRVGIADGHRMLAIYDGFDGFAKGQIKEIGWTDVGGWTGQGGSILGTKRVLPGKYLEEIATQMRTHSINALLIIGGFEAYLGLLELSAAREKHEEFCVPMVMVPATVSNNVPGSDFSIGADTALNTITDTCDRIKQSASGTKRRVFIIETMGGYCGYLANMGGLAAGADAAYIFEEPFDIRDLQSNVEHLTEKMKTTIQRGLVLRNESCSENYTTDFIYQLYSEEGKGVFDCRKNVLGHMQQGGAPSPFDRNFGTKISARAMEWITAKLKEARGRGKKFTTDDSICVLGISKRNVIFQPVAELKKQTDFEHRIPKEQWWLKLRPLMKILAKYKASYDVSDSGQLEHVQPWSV
UniProt Q9GZP4: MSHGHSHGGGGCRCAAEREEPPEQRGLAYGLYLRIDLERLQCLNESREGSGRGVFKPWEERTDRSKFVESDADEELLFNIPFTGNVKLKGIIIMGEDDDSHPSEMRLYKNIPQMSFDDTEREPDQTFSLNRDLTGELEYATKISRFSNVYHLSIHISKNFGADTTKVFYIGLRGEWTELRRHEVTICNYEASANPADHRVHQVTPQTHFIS
UniProt P07737, whole entry, looked up: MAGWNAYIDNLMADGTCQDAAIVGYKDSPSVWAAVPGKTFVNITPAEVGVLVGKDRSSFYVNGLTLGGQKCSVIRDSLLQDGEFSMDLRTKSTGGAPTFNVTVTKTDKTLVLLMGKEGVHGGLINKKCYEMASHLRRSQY
UniProt Q9NQP4, whole entry, looked up: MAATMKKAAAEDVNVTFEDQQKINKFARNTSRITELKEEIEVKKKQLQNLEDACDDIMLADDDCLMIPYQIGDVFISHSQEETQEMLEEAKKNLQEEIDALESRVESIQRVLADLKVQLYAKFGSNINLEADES
UniProt P40855: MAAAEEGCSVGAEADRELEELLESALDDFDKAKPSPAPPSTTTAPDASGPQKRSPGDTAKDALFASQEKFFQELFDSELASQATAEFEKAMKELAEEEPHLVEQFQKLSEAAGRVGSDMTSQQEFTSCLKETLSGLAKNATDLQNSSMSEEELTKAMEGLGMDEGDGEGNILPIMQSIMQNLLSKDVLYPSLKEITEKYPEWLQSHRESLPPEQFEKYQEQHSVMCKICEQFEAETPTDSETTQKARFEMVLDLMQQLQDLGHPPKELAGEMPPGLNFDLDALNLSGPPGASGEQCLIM
UniProt O15173: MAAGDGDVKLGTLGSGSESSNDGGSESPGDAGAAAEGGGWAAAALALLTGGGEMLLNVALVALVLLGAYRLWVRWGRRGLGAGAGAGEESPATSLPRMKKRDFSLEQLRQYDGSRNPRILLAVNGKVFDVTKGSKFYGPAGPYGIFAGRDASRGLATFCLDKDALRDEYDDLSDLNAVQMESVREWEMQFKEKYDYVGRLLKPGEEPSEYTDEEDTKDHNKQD

filanesib = compound: CON(C)C(=O)N1N=C(c2cc(F)ccc2F)S[C@@]1(CCCN)c1ccccc1 [filanesib]
Outline: as §1

zotarolimus = compound: CO[C@H]1C[C@@H]2CC[C@@H](C)[C@@](O)(O2)C(=O)C(=O)N2CCCC[C@H]2C(=O)O[C@H]([C@H](C)C[C@@H]2CC[C@H](n3cnnn3)[C@H](OC)C2)CC(=O)[C@H](C)/C=C(\C)[C@@H](O)[C@@H](OC)C(=O)[C@H](C)C[C@H](C)/C=C/C=C/C=C/1C [zotarolimus]
Outline: as §1

idasanutlin = compound: COc1cc(C(=O)O)ccc1NC(=O)[C@@H]1N[C@@H](CC(C)(C)C)[C@](C#N)(c2ccc(Cl)cc2F)[C@H]1c1cccc(Cl)c1F [idasanutlin]
Outline: as §1

alisertib = compound: COc1cc(Nc2ncc3c(n2)-c2ccc(Cl)cc2C(c2c(F)cccc2OC)=NC3)ccc1C(=O)O [alisertib]
Outline: as §1

[2] = compound: COc1cc2nc(-c3cc(F)ccc3O)nc(N[C@@H]3CNC[C@H]3C(C)(C)O)c2cc1OC
Outline: as §1

gefitinib = compound: COc1cc2ncnc(Nc3ccc(F)c(Cl)c3)c2cc1OCCCN1CCOCC1 [gefitinib]
Outline: as §1

[3] = compound: COc1cccc2cc(-c3nc([C@H]4CC[C@H](C(=O)O)CC4)n4ncnc(N)c34)[nH]c12
Outline: as §1

lapatinib = compound: CS(=O)(=O)CCNCc1ccc(-c2ccc3ncnc(Nc4ccc(OCc5cccc(F)c5)c(Cl)c4)c3c2)o1 [lapatinib]
Outline: as §1

pictilisib = compound: CS(=O)(=O)N1CCN(Cc2cc3nc(-c4cccc5[nH]ncc45)nc(N4CCOCC4)c3s2)CC1 [pictilisib]
Outline: as §1

[4] = compound: CS(=O)(=O)c1ccc(-c2cnc(N)c(C(=O)Nc3ccccc3)n2)cc1
Outline: as §1

crizotinib = compound: C[C@@H](Oc1cc(-c2cnn(C3CCNCC3)c2)cnc1N)c1c(Cl)ccc(F)c1Cl [crizotinib]
Outline: as §1

[5] = compound: C[C@@H]1COCCN1C2=NC(=NC(=C2)C3(CC3)S(=O)(=O)C)C4=C5C=CNC5=CC=C4
Outline: as §1

[6] = compound: C[C@H](C1=CC=C(C=C1)C(=O)NC2=C3C=CNC3=NC=C2)N
Outline: as §1

duvelisib = compound: C[C@H](Nc1ncnc2nc[nH]c12)c1cc2cccc(Cl)c2c(=O)n1-c1ccccc1 [duvelisib]
Outline: as §1

gandotinib = compound: Cc1cc(Nc2cc(CN3CCOCC3)c3nc(C)c(Cc4ccc(Cl)cc4F)n3n2)n[nH]1 [gandotinib]
Outline: as §1

tozasertib = compound: Cc1cc(Nc2cc(N3CCN(C)CC3)nc(Sc3ccc(NC(=O)C4CC4)cc3)n2)n[nH]1 [tozasertib]
Outline: as §1

[7] = compound: Cc1cc(SCc2sc(-c3ccc(C(F)(F)F)cc3)nc2C)ccc1OCC(=O)O
Outline: as §1

doramapimod = compound: Cc1ccc(-n2nc(C(C)(C)C)cc2NC(=O)Nc2ccc(OCCN3CCOCC3)c3ccccc23)cc1 [doramapimod]
Outline: as §1

ispinesib = compound: Cc1ccc(C(=O)N(CCCN)[C@@H](c2nc3cc(Cl)ccc3c(=O)n2Cc2ccccc2)C(C)C)cc1 [ispinesib]
Outline: as §1

Measured: log2 fold change

PFKL isoform 2 (UniProt P17858)
inactive: [1] 0.019 | filanesib 0.015 | zotarolimus -0.006 | idasanutlin -0.022 | alisertib -0.008 | [2] 0.037 | gefitinib -0.002 | [3] 0.073 | lapatinib -0.02 | pictilisib 0.015 | [4] 0.018 | crizotinib 0.066 | [5] 0.06 | [6] -0.063 | duvelisib 0.018 | gandotinib -0.001 | tozasertib -0.019 | [7] -0.018 | doramapimod -0.02 | ispinesib 0.049

PIGN (UniProt O95427)
inactive: [1] -0.155 | filanesib -0.123 | zotarolimus 0.086 | idasanutlin -0.069 | alisertib -0.118 | [2] 0.136 | gefitinib -0.031 | [3] -0.122 | lapatinib -0.281 | pictilisib 0.059 | [4] -0.007 | crizotinib -0.004 | [5] 0.015 | [6] 0.276 | duvelisib 0.167 | gandotinib -0.175 | tozasertib 0.003 | [7] 0.068 | doramapimod 0.118 | ispinesib 0.03

PIGA (UniProt P37287)
inactive: [1] -0.144 | filanesib -0.007 | zotarolimus 0.035 | idasanutlin 0.07 | alisertib -0.017 | [2] 0.066 | gefitinib 0.013 | [3] -0.017 | lapatinib 0.003 | pictilisib -0.425 | [4] 0.066 | crizotinib 0.022 | [5] 0.061 | [6] -0.054 | duvelisib 0.189 | gandotinib 0.195 | tozasertib 0.013 | [7] 0.143 | doramapimod -0.012 | ispinesib 0.077

PHF6 (UniProt Q8IWS0)
inactive: [1] -0.1 | filanesib 0.269 | zotarolimus 0.041 | idasanutlin 0.18 | alisertib -0.031 | [2] -0.026 | gefitinib -0.049 | [3] -0.188 | lapatinib 0.12 | pictilisib -0.058 | [4] -0.103 | crizotinib 0.087 | [5] -0.437 | [6] 0.308 | duvelisib -0.096 | gandotinib 0.313 | tozasertib 0.049 | [7] 0.052 | doramapimod 0.141 | ispinesib -0.113

PFKFB4 (UniProt Q16877)
inactive: [1] -0.029 | filanesib -0.014 | zotarolimus -0.004 | idasanutlin 0.008 | alisertib -0.014 | [2] 0.06 | gefitinib -0.026 | [3] 0.016 | lapatinib 0.004 | pictilisib -0.022 | [4] 0.063 | crizotinib -0.014 | [5] -0.02 | [6] 0.002 | duvelisib 0.049 | gandotinib -0.079 | tozasertib -0.074 | [7] 0.012 | doramapimod 0.061 | ispinesib -0.023

PGP (UniProt A6NDG6)
inactive: [1] -0.031 | filanesib -0.073 | zotarolimus 0.005 | idasanutlin -0.053 | alisertib -0.027 | [2] -0.001 | gefitinib 0.004 | [3] 0.008 | lapatinib 0.01 | pictilisib 0.055 | [4] 0.004 | crizotinib 0.045 | [5] 0.045 | [6] -0.086 | duvelisib 0.038 | gandotinib -0.003 | tozasertib -0.019 | [7] -0.03 | doramapimod -0.04 | ispinesib 0.039

PIP (UniProt P12273)
inactive: [1] 0.385 | filanesib 0.171 | zotarolimus -0.071 | idasanutlin 0.093 | alisertib -0.139 | [2] 0.206 | gefitinib 0.526 | [3] -0.042 | lapatinib -0.034 | pictilisib -0.152 | [4] -0.135 | crizotinib 0.183 | [5] -0.103 | [6] -0.249 | duvelisib -0.167 | gandotinib -0.181 | tozasertib 0.19 | [7] -0.442 | doramapimod -0.163 | ispinesib 0.52

Pulled one by one from the list above (2):
PFKL isoform 2 (UniProt P17858)
inactive: [1] 0.019 | filanesib 0.015 | zotarolimus -0.006 | idasanutlin -0.022 | alisertib -0.008 | [2] 0.037 | gefitinib -0.002 | [3] 0.073 | lapatinib -0.02 | pictilisib 0.015 | [4] 0.018 | crizotinib 0.066 | [5] 0.06 | [6] -0.063 | duvelisib 0.018 | gandotinib -0.001 | tozasertib -0.019 | [7] -0.018 | doramapimod -0.02 | ispinesib 0.049

PFKFB4 (UniProt Q16877)
inactive: [1] -0.029 | filanesib -0.014 | zotarolimus -0.004 | idasanutlin 0.008 | alisertib -0.014 | [2] 0.06 | gefitinib -0.026 | [3] 0.016 | lapatinib 0.004 | pictilisib -0.022 | [4] 0.063 | crizotinib -0.014 | [5] -0.02 | [6] 0.002 | duvelisib 0.049 | gandotinib -0.079 | tozasertib -0.074 | [7] 0.012 | doramapimod 0.061 | ispinesib -0.023

Next part

PIGK (UniProt Q92643)
inactive: [1] 0.049 | filanesib 0.012 | zotarolimus -0.03 | idasanutlin 0.065 | alisertib 0.077 | [2] -0.025 | gefitinib -0.038 | [3] -0.065 | lapatinib 0.055 | pictilisib 0.04 | [4] 0.071 | crizotinib 0.039 | [5] 0.003 | [6] 0.151 | duvelisib -0.028 | gandotinib 0.014 | tozasertib 0.048 | [7] 0.003 | doramapimod 0.006 | ispinesib 0.017

PHGDH (UniProt O43175)
inactive: [1] 0.011 | filanesib -0.014 | zotarolimus -0.001 | idasanutlin -0.011 | alisertib -0.049 | [2] -0.016 | gefitinib 0.008 | [3] 0.031 | lapatinib 0.012 | pictilisib 0.016 | [4] 0.004 | crizotinib 0.029 | [5] 0.039 | [6] -0.065 | duvelisib 0.035 | gandotinib -0.024 | tozasertib 0.018 | [7] -0.019 | doramapimod -0.04 | ispinesib 0.047

PFKP (UniProt Q01813)
inactive: [1] -0.004 | filanesib -0.025 | zotarolimus 0.041 | idasanutlin 0.004 | alisertib -0.006 | [2] 0.039 | gefitinib 0.003 | [3] 0.022 | lapatinib 0.02 | pictilisib 0.061 | [4] -0.008 | crizotinib 0.046 | [5] 0.01 | [6] -0.024 | duvelisib 0.062 | gandotinib -0.063 | tozasertib -0.02 | [7] 0.01 | doramapimod 0 | ispinesib 0.019

PI4KA (UniProt P42356)
inactive: [1] -0.01 | filanesib 0.113 | zotarolimus 0.021 | idasanutlin -0.01 | alisertib -0.029 | [2] 0.02 | gefitinib 0.082 | [3] -0.162 | lapatinib 0.069 | pictilisib 0.164 | [4] 0.14 | crizotinib -0.009 | [5] -0.114 | [6] 0.148 | duvelisib 0.056 | gandotinib 0.061 | tozasertib 0.03 | [7] 0.041 | doramapimod 0.037 | ispinesib -0.068

PITHD1 (UniProt Q9GZP4)
inactive: [1] -0.096 | filanesib 0.001 | zotarolimus -0.055 | idasanutlin 0.105 | alisertib 0.071 | [2] 0.016 | gefitinib -0.031 | [3] 0.098 | lapatinib -0.085 | pictilisib 0.004 | [4] 0.01 | crizotinib 0.081 | [5] 0.006 | [6] 0.021 | duvelisib 0.021 | gandotinib 0.06 | tozasertib -0.038 | [7] -0.058 | doramapimod -0.068 | ispinesib -0.021

PFN1 (UniProt P07737)
inactive: [1] 0.01 | filanesib -0.064 | zotarolimus 0.014 | idasanutlin -0.046 | alisertib -0.04 | [2] -0.008 | gefitinib -0.001 | [3] 0.011 | lapatinib -0.023 | pictilisib 0.018 | [4] -0.007 | crizotinib 0.05 | [5] 0.037 | [6] -0.099 | duvelisib 0 | gandotinib -0.046 | tozasertib 0.016 | [7] -0.04 | doramapimod -0.034 | ispinesib 0.055

PFDN4 (UniProt Q9NQP4)
inactive: [1] -0.125 | filanesib 0.015 | zotarolimus 0.017 | idasanutlin 0.07 | alisertib -0.052 | [2] 0.018 | gefitinib -0.015 | [3] 0.164 | lapatinib 0.026 | pictilisib 0.002 | [4] -0.019 | crizotinib -0.067 | [5] -0.086 | [6] 0.01 | duvelisib 0.066 | gandotinib -0.082 | tozasertib -0.113 | [7] -0.05 | doramapimod 0.065 | ispinesib -0.077

PEX19 (UniProt P40855)
inactive: [1] 0.044 | filanesib 0.041 | zotarolimus -0.006 | idasanutlin 0.02 | alisertib -0.027 | [2] -0.043 | gefitinib -0.009 | [3] 0.03 | lapatinib 0.034 | pictilisib -0.005 | [4] -0.017 | crizotinib 0.068 | [5] -0.01 | [6] -0.008 | duvelisib 0 | gandotinib 0.085 | tozasertib 0.01 | [7] -0.043 | doramapimod -0.04 | ispinesib -0.015

PGRMC2 isoform 2 (UniProt O15173)
inactive: [1] 0.01 | filanesib -0.09 | zotarolimus 0.035 | idasanutlin -0.016 | alisertib -0.088 | [2] 0 | gefitinib 0.017 | [3] 0.005 | lapatinib -0.019 | pictilisib -0.011 | [4] 0.005 | crizotinib 0.092 | [5] -0.006 | [6] -0.09 | duvelisib 0.008 | gandotinib 0.073 | tozasertib -0.003 | [7] 0.018 | doramapimod -0.028 | ispinesib 0.098
